Laboratory results reported in article doi:10.1101/2024.04.05.588290.

The chains behind the UniProt entries cited, without tags or fusion partners. Residues count along the entry.
UniProt P05231, 30-212: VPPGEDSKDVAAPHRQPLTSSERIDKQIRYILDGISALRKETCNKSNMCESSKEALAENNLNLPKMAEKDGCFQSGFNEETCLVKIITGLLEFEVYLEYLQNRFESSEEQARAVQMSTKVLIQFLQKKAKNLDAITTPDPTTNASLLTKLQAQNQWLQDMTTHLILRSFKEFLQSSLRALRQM

Target: interleukin-6 (IL-6), human recombinant (Homo sapiens) (UniProt P05231)
Assay: SWCNT near-infrared fluorescence quenching, (7,5) chirality
Settings: SWCNT complex, 1X PBS + 10% FBS, no significant response, p=0.58306; 0.5 mg/L SWCNT-ssDNA in 1X PBS (or 1X PBS + 10% FBS), 5250 ng/mL IL-6, 120 uL, triplicate, up to 180 min; pH and temperature not stated; commercial protein; label: noncovalently adsorbed on SWCNT; single-stranded DNA

## TGTGTGTGTGTGTGTGTGTGTGTGTGTGTGGTGGCAGGAGGACTATTTATTTGCTTTTCT [(GT)15+31Apt]
  binding result: no binding

No signal at the amounts used counts as a negative.
